The source of these data is publication doi:10.1101/2019.12.21.885863.

Assay [1] deals with T1, GAL4BD-SMXL5 fusion protein (Arabidopsis thaliana) (UniProt Q9LU73).
T1 sequence: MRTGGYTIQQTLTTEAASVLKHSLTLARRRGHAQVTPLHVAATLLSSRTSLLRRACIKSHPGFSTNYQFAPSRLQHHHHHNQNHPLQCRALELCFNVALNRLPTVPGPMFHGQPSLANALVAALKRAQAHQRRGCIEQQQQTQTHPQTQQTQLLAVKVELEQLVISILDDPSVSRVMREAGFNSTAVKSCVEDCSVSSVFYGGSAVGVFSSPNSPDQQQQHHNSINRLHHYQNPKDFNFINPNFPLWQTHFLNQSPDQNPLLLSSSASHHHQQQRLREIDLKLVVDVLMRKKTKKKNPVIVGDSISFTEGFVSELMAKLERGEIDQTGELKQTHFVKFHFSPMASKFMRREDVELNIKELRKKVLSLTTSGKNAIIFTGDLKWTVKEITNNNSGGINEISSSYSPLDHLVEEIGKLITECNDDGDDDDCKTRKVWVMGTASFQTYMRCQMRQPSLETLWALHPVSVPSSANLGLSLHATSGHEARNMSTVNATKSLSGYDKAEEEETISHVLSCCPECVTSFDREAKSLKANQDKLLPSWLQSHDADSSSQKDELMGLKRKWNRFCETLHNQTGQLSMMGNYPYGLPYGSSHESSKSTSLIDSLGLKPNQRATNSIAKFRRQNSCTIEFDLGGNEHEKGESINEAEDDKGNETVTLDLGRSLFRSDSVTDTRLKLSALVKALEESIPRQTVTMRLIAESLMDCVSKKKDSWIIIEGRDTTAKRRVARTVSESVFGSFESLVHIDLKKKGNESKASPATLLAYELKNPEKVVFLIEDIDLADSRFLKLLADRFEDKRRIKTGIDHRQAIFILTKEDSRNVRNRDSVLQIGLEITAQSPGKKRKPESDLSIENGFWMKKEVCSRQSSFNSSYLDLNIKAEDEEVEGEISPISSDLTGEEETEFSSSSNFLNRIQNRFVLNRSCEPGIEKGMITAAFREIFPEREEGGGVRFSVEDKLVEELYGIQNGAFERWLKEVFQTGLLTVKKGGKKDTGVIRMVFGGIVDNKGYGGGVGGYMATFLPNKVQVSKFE
Nature of the assay: two-hybrid.

For assay [2], the target named is T2, SMXL5-3xHA (Arabidopsis thaliana) (UniProt Q9LU73).
T2 sequence: T1 sequence
As to the kind of experiment: co-IP.

In assay [3] the target is T3, SMXL5-mCherry (Arabidopsis thaliana) (UniProt Q9LU73).
T3 sequence: T1 sequence
Nature of the assay: FRET or BRET. For orientation: BRET reads energy transfer from a luciferase to a nearby fluorophore.

These are yes or no findings as the source states them, for the method shown. For part of these data: In cells and extracts the contact can be indirect. Some results given as binding are weak or reduced against the parent protein; the word gives no strength. Tags and fused reporters may be left off the sequences shown.

B1: GAL4AD-OBE3 fusion protein (protein, UniProt Q94B71 1-733)
chain: MIGEKDLAGDGECSRTKTSKPRFSNLNNQTHQDDKTGQYHQKGVDFLNVRSNNLDGGFSSKSSPRSGNELTLSYLCENSGKLAESLGQKGKEVVTFSENSSYDDKWVERDFFNLREMNPNSSKRKAHEEEEEAEEEEDKKSNKIETLNLSLALPDVSLSLTASNAVKRPRVVTSERTTTSFSNDFTATAPSMSYSYSHPFSHNISCSMTRNSTDFDCSVGKDDHIWCAGEGTNGSVHSRFRPIGDGGVALANNPVSGKPSSSADYSFFPSELPARPGNEVTISGDSRKKVANLEDNDAVRSERVLYDIVSKSISSVALIIQGMADETLESAKEYLRNLIDSPEKKEKLVNLQNQIDKRSDLSKETLSKCVKDQLDILVAVRTGLKYFLSGKIRIPMNELVEIFLFLRCRNVNCKSLLPVDDCECKICSNNKGFCSSCMCPVCLRFDSASNTCSWVGCDVCSHWCHAACGIQKNLIKPGHSLKGQRGTTEMMFHCIGCAHKSEMFGFVKDVFVCCAKNWGLETLIKELDCVRKVFRGSDDAKGKALHLKANEMVKKLESKQISPLDASNFIIQFFNYAESIPEIPDPPRELTVAAETSYRKDEASVTPSTSKDQKKKSFALTDAMMNSFDSLESMVRIKEAETRMFQKKADEARIEAESFKRMIEMKTEKMEEEYTEKLARLCLQETEERRRNKLEELKKLENSHCDYRNMKLRMEAEIAGLLKRMEVTRQQLV
Take B1: the binding result in assay [1] is reported as “binds”.

B2: 6xMyc-OBE3 (protein, UniProt Q94B71 1-733)
chain: B1 chain
On to B2, for which the binding entry in assay [2] is reported as “binds”.

B3: OBE3-mGFP (protein, UniProt Q94B71 1-733)
chain: B1 chain
As for B3, the binding result in assay [3] is on record as “binds”.
